No constants are given. Whether binding was seen depends on the method and setting. In cells and extracts the contact can be indirect. Some entries that bind do so weakly or less than the wild type.
What was measured:
Assay in all cases: co-IP; native IP of endogenous proteins from U2OS lysates (NP40 lysis buffer, sonicated); 100-600 ug total protein, 1 ug antibody, Dynabeads Protein G, overnight at 4 °C; washed twice with NP40 and twice with RIPA buffer; western blotting; cells untreated (Fig. 7b) or irradiated (6 Gy, 30 min recovery; Fig. 6a, b, h), with or without depletion of scaRNA2 or LINP1
[1] = target: DNA-dependent protein kinase catalytic subunit (DNA-PKcs) (human (endogenous in U2OS)) (UniProt P78527)
[2] = target: Ku70 (human (endogenous in U2OS)) (UniProt P12956)
[3] = target: Ku80 (human (endogenous in U2OS)) (UniProt P13010)

Sequences of proteins named here, by UniProt entry; tags and fusion partners are left off.
UniProt P78527: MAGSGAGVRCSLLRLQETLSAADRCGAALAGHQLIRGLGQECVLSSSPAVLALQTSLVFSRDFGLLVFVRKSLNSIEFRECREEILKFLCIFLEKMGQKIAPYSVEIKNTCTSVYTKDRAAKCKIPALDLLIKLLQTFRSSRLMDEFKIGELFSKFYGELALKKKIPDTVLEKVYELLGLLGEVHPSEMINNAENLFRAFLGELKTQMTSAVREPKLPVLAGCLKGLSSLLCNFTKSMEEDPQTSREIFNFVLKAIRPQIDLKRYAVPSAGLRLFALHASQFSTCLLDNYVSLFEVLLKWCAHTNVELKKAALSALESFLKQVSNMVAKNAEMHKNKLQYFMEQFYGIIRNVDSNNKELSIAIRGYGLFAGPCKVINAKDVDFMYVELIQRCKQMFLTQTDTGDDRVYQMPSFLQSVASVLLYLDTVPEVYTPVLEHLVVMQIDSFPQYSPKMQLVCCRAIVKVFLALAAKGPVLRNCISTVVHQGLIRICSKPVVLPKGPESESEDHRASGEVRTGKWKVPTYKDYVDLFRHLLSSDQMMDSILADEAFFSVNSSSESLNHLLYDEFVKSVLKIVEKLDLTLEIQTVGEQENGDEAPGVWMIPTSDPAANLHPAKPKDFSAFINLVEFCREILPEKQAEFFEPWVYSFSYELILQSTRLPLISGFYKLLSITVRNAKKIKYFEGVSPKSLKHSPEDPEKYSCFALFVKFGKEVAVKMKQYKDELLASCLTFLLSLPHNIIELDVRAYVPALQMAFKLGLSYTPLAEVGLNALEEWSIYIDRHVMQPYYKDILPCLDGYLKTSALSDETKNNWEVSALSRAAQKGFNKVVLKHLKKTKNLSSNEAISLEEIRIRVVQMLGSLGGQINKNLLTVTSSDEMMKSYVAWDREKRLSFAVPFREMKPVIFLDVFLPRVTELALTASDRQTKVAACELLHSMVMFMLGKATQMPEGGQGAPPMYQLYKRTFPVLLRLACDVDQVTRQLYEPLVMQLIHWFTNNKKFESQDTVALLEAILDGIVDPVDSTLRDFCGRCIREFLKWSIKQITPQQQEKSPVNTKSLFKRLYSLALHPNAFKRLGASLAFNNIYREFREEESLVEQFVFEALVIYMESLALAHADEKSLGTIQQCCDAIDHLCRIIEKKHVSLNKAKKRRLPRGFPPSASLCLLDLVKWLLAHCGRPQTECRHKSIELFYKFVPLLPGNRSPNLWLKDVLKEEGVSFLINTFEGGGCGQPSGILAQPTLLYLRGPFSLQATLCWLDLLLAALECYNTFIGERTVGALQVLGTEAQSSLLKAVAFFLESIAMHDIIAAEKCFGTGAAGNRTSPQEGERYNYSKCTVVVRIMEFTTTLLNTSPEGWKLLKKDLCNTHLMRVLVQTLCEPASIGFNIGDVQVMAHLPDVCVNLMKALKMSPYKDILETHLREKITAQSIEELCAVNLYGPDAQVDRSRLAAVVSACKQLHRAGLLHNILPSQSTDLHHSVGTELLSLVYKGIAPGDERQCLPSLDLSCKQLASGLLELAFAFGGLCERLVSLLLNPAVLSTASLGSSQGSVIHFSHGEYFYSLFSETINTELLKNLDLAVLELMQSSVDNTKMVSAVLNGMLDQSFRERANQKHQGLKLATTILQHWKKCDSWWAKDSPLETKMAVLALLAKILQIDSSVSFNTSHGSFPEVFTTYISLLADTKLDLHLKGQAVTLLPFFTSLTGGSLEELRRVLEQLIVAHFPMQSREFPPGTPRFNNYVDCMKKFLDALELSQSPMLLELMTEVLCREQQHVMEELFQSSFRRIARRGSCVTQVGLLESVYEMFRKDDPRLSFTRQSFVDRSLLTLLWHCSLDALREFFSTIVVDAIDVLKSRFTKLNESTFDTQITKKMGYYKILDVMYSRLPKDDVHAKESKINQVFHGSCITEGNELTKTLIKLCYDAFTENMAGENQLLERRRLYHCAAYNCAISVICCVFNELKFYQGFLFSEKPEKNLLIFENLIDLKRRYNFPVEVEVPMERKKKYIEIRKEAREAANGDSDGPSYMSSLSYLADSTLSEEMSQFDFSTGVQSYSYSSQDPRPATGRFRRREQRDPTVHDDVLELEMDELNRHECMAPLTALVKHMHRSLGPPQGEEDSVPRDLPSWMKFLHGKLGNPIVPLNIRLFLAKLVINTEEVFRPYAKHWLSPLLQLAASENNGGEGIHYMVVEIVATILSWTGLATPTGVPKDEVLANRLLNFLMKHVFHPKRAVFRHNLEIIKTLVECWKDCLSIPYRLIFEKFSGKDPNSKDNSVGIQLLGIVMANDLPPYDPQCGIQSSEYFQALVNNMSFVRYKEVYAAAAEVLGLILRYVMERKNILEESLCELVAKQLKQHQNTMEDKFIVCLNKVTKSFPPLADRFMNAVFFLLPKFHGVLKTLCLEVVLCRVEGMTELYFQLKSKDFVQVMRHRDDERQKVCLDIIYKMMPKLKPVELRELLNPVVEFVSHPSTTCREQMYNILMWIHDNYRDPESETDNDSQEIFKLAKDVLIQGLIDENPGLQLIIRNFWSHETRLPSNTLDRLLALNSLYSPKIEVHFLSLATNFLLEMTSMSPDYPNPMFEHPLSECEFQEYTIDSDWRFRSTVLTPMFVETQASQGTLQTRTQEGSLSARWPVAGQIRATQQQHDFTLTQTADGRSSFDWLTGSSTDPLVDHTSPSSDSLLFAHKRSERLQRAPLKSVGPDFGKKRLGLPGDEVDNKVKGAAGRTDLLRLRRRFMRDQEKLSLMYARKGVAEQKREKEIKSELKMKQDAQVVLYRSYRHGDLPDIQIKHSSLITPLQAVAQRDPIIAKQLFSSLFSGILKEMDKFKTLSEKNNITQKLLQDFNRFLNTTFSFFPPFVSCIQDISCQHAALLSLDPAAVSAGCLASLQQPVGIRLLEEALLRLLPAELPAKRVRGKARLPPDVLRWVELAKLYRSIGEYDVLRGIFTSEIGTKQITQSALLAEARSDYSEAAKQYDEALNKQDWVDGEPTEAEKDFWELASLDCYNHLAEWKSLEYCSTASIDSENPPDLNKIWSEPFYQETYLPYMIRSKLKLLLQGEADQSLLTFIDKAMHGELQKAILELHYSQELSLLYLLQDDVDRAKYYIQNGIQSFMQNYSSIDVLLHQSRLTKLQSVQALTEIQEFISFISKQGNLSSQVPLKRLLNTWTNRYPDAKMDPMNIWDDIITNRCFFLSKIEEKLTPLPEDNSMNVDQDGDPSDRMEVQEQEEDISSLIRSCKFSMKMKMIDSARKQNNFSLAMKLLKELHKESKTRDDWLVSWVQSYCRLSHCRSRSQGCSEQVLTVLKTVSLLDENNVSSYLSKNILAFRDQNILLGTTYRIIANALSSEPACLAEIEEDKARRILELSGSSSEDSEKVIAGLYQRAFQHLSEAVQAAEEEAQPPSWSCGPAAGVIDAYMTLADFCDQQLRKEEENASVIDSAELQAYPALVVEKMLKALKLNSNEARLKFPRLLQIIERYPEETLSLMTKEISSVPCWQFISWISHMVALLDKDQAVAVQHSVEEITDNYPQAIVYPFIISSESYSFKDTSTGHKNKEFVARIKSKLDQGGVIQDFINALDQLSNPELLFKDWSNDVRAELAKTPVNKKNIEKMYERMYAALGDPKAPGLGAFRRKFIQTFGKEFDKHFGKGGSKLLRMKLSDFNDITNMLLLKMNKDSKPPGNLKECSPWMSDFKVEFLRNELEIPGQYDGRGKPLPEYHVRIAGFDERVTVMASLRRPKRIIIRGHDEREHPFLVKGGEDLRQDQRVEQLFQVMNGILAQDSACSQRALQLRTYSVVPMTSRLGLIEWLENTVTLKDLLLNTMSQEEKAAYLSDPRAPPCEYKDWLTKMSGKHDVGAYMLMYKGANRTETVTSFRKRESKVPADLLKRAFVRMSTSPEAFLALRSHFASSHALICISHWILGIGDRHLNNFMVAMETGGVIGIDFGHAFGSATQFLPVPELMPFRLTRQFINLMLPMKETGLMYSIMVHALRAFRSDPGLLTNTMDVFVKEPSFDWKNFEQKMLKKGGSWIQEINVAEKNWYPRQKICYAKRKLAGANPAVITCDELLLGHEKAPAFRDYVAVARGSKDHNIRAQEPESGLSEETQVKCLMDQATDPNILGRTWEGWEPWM
UniProt P12956: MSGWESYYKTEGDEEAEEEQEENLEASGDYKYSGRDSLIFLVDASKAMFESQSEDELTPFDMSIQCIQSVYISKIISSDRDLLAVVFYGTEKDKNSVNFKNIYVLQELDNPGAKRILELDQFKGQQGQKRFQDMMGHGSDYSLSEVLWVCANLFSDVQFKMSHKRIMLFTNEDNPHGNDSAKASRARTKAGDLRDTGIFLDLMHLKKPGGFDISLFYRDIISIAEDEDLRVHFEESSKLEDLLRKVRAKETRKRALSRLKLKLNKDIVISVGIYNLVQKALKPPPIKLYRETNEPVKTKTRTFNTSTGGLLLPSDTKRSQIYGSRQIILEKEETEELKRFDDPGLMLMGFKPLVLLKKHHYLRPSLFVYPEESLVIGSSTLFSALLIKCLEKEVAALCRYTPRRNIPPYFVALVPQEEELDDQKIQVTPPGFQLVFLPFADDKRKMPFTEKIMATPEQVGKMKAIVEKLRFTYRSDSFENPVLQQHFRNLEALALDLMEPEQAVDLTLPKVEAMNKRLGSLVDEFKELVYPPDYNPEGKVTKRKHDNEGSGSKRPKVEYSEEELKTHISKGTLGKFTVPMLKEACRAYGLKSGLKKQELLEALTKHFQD
UniProt Q9BUR4: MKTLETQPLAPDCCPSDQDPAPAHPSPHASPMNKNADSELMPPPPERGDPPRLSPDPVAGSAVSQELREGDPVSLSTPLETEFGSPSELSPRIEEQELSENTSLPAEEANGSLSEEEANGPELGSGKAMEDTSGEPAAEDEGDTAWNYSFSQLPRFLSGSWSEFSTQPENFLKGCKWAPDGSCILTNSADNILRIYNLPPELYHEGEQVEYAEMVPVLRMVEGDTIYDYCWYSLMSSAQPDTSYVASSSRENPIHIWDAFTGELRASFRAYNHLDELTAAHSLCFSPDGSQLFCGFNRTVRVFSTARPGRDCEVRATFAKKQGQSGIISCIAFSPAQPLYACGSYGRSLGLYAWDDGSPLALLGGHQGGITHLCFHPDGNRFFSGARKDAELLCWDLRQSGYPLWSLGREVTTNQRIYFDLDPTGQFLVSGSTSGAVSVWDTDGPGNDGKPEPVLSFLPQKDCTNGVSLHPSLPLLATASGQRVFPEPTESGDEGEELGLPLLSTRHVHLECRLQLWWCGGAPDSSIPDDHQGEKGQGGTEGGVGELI
UniProt P38432: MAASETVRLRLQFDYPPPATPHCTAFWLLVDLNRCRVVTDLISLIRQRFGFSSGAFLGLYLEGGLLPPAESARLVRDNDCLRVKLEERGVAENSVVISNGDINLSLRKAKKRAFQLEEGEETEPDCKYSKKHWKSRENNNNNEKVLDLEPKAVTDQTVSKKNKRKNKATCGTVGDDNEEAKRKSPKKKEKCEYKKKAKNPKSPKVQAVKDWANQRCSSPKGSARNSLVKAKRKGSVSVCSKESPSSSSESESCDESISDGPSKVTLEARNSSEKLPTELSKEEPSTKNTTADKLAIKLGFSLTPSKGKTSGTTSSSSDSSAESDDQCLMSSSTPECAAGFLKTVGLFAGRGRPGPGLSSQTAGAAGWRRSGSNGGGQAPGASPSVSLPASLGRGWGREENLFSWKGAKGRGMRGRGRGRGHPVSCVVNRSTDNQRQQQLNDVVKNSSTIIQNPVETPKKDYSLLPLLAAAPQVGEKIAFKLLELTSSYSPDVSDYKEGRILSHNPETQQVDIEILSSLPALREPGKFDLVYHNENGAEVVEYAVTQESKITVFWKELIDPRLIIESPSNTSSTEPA

| binding [1] | binding [2] | binding [3] | Substance |
| --- | --- | --- | --- |
| binds | binds | binds | WRAP53β (WD40 encoding RNA Antisense to p53) (from UniProt Q9BUR4 1-548) |
| binds | binds | binds | coilin (from UniProt P38432 1-576) |

From PMC8866460
